Experimental findings from paper PMC12431657, “Discovery and mechanistic insights of dibenzoylmethane as a broad spectrum inhibitor of coronavirus” (PLOS Pathogens, 2025) are described below.

Molecules are shown by their SMILES. Counter-ions that a name gives are not always drawn. Like-named read-outs stand apart in the source and are kept apart here. The campaign covered roughly 3,300 compounds. About 60 (2%) showed an effect of 50% or more. The list shows a part of the results.

The test system of the assay is HCoV-OC43. More on the design: species or system RD; HTS, protection from HCoV-OC43 induced cell death, luminescent cell viability (CellCounting-Lite 2.0), inhibition rate. The following applies: 24 h post infection, 1 h compound pre-incubation, 10 µM, inhibitor.

Regarding `O=C(/C=C/c1ccc(O)c(O)c1)O[C@H](Cc1ccc(O)c(O)c1)C(=O)O` [Rosmarinic acid], the “OC43 Inhibition rate” value is listed as -3.5%. With `COc1cc(C[C@@H](CO[C@@H]2O[C@H](CO)[C@@H](O)[C@H](O)[C@H]2O)[C@H](CO[C@@H]2O[C@H](CO)[C@@H](O)[C@H](O)[C@H]2O)Cc2ccc(O)c(OC)c2)ccc1O` [(R,R)-Secoisolariciresinol diglucoside], the “OC43 Inhibition rate” value (OC43 Inhibition rate, 24 h) is -0.5%. On to `COc1ccc(-c2cc(=O)c3c(O)c(OC)c(O)cc3o2)cc1OC` [Eupatilin], for which the “OC43 Inhibition rate” value came out at 4.5%. `O=C(O)/C=C/c1ccc2c(c1)OCO2` [3,4-Methylenedioxycinnamic acid]: the “OC43 Inhibition rate” value (OC43 Inhibition rate, 24 h) was 3.6%. With `O=c1cc(-c2ccc(O)c(O)c2)oc2cc(O[C@@H]3O[C@H](CO)[C@@H](O)[C@H](O)[C@H]3O)c(O)c(O)c12` [6-Hydroxyluteolin 7-glucoside], the “OC43 Inhibition rate” value is -0.7%. On to `C=C[C@](C)(O)CC[C@@H]1[C@@]2(C)CCCC(C)(C)[C@@H]2CC[C@@]1(C)O` [Sclareol], for which the “OC43 Inhibition rate” value was 9.7%.

In the case of `O=C(O)[C@@H]1[C@H]2C[C@H]3c4[nH]c5ccccc5c4CCN3C[C@@H]2CC[C@@H]1O` [Yohimbic acid], the “OC43 Inhibition rate” value is listed as -0.7%.

Turning to `CC(O)(CCO)CC(=O)O` (centres unmarked) [Mevalonic acid (lithium salt)], the “OC43 Inhibition rate” value is -0.5%. On the same count and under the same terms, next, `CC=C1[C@@H]2C=C(C)C[C@@]1(N)c1ccc(=O)[nH]c1C2` (racemic) [(±)-Huperzine A]: 1.6%; `COc1c(/C=C/C(=O)c2ccc(O)cc2)ccc(O)c1CC=C(C)C` [Licochalcone C]: 39%. The same measure, in the same setting: with `COc1cc(CNC(=O)CCCC/C=C/C(C)C)ccc1O` [Capsaicin] the figure was 10.2%. Regarding `CCC1(c2ccc(O)cc2)NC(=O)N(C)C1=O` (centres unmarked) [4-Hydroxymephenytoin], the “OC43 Inhibition rate” value is -0.5%. Same read-out and setting: next, `CCCOC(=O)c1ccc(O)cc1` [Propylparaben]: -1.1%. Still for that read-out and setting: next, `Oc1cc(O)c2cc(O)c(-c3ccc(O)c(O)c3)[o+]c2c1` [Cyanidin (Chloride)]: -0.5%; `O=C1c2ccccc2C(=O)c2c(O)c(O)cc(O)c21` [Purpurin]: -0.1%; `CC(=O)O[C@@]1(C)C[C@@H](O)[C@]2(O)C=CO[C@@H](O[C@@H]3O[C@H](CO)[C@@H](O)[C@H](O)[C@H]3O)[C@@H]21` [8-O-Acetylharpagide]: 0%.

On to `COc1cc2ccc(=O)oc2c(O)c1O` [Fraxetin], for which the “OC43 Inhibition rate” value is on record as -0.3%. On the same count and under the same terms, with `Nc1ccccc1S(=O)(=O)O` [2-Aminobenzenesulfonic acid] the figure was 0.5%. `O=C(O)C(O)C(O)C(=O)O` (centres unmarked) [Choline (bitartrate)]: under “OC43 Inhibition rate, 24 h”, the “OC43 Inhibition rate” value was -1.3%. Regarding `C=C[C@](C)(O)CC[C@H]1C(=C)CC[C@H]2C(C)(C)CCC[C@]12C` [Manool], the “OC43 Inhibition rate” value was 0.7%. On the same count and under the same terms, next, `Cc1ccc(O)c(O)c1` [4-Methylcatechol]: -0.9%.

For `C[C@@H]1O[C@@H](Oc2cc(O)c3c(=O)c(O)c(-c4ccc(O)cc4)oc3c2O)[C@H](O)[C@H](O)[C@H]1O` [Rhodionin], the “OC43 Inhibition rate” value amounted to 0.2%. The same measure, in the same setting: with `CC(=O)O[C@@]12CO[C@@H]1C[C@H](O)[C@@]1(C)C(=O)[C@H](O)C3=C(C)[C@@H](OC(=O)[C@H](O)[C@@H](NC(=O)c4ccccc4)c4ccccc4)C[C@@](O)([C@@H](OC(=O)c4ccccc4)[C@H]21)C3(C)C` [10-Deacetyltaxol] the figure was 0.2%; with `CC(C)=CCC[C@H](C)CC=O` [(S)-(-)-Citronellal], -0.8%. As for `COc1cc2c(cc1OC)[C@@H](Cc1ccc(O)c(Oc3cc4c(cc3OC)CCN(C)[C@@H]4Cc3ccc(O)cc3)c1)N(C)CC2` [Liensinine (perchlorate)], under “OC43 Inhibition rate, 24 h”, the “OC43 Inhibition rate” value stood at 0.4%. `C=C1C[C@@]23CC[C@H]4[C@@](C)(CCC[C@@]4(C)C(=O)O[C@@H]4O[C@H](CO)[C@@H](O)[C@H](O)[C@H]4O)[C@@H]2CC[C@]1(O[C@@H]1O[C@H](C)[C@@H](O)[C@H](O)[C@@H]1O[C@@H]1O[C@H](CO)[C@@H](O)[C@H](O[C@@H]2O[C@H](CO)[C@@H](O)[C@H](O)[C@H]2O)[C@H]1O)C3` [Rebaudioside C]: the “OC43 Inhibition rate” value is reported as -0.6%. Still for that read-out and setting: next, `NC[C@H](O)c1ccc(O)c(O)c1` [Norepinephrine (hydrochloride)]: 1.5%. The same measure, in the same setting: with `O[C@H]1[C@H](O)[C@@H](O)CN2CC[C@H](O)[C@H]12` [Castanospermine] the figure was 0.4%; with `OC[C@@H](O)[C@@H](O[C@H]1O[C@H](CO)[C@@H](O)[C@H](O)[C@H]1O)[C@H](O)[C@@H](O)CO` [Maltitol], 5.9%.
